Assay results published in PubChem BioAssay AID2685 (National Center for Advancing Translational Sciences (NCATS), 2010).
Some of the results follow. Shown are side measurements of this screen, not its main read-out; they come without a call. The list favours compounds with an active or inconclusive main result. Words in brackets tell the shape of the fitted curve; partial curves, single points and poor fits give uncertain potencies.

Assay: qHTS Assay for Lipid Storage Modulators in Drosophila S3 Cells;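 on cell number change: cells counted by Cell Tracker Red CMTPX staining in the red channel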
Conditions: BODIPY lipid droplet fluorescence, 18-24 h; for cell number change: measured here: cell count max response, cells fed with added oleic acid
Outline: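 Drosophila S3 cells loaded with oleic acid (400 uM, as added) and compounds at several concentrations; lipid droplets imaged by 488-nm laser-scanning cytometry, 500–530 nm intensity and object ratio to cell channel. Percent activity normalized to 20 uM Triacsin C.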

[1] = measured here: cell number channel AC50, cells fed with added oleic acid
[2] = measured here: lipid fluorescence (Fed channel) AC50, cells fed with added oleic acid

SMILES	cell number change [%]	AC50 [1]	AC50 [2]
Cc1nnc(SC2CC(=O)N(c3ccccc3)C2=O)s1 (configuration not stated)	-79.3	29.1 µM [falling, single point]	29.1 µM [falling, single point]
Cc1cc(C)c2[nH]c(O)c(N=NC(=O)c3cc4c(s3)CCCC4)c2c1	2.67	–	29.1 µM [rising, single point]
COc1ccc2cc3cc(C(=O)NCc4ccco4)oc3nc2c1	–	0.366 µM [rising, full curve]	0.58 µM [rising, single point]
CC(C)(C)NC(=O)c1cc(-c2ccc3c(c2)OCO3)nc2ccccc12	17.3	–	2.91 µM [rising, single point]
CCc1ccc(N(CC(=O)NCc2ccc3c(c2)OCO3)C(=O)c2csnn2)cc1	19.4	–	29.1 µM [rising, single point]
C/C(CC(=O)Nc1ccc(Cl)cc1)=N\NC(=O)C(=O)N1CCCCC1	0.716	–	–
CCc1ccc(NC(=S)Nn2cnnc2)cc1	-7.71	–	–
CCCCOC(C)n1cc(F)c(=O)[nH]c1=O (configuration not stated)	9.52	–	4.61 µM [falling, full curve, poor fit]
COc1ccc(C)cc1S(=O)(=O)NCCc1ccccc1	–	–	5.8 µM [falling, full curve]
COc1cc(C(=O)NCCc2cn3ccc(C)cc3n2)cc(OC)c1OC	130	11.6 µM [rising, partial curve]	11.6 µM [rising, partial curve]
O=S(=O)(Nc1ccc(-n2cccc2)cc1)c1ccc(Cl)cc1Cl	-66.6	13 µM [falling, partial curve]	18.4 µM [falling, partial curve]
COc1ccc(-c2cc(C(=O)N3CCCCC3)c3ccccc3n2)cc1	–	–	23.1 µM [falling, partial curve, poor fit]
O=C(CSc1nc2c(cnn2-c2ccccc2)c(=O)[nH]1)NC1CCS(=O)(=O)C1 (configuration not stated)	-19.4	3.26 µM [falling, single point]	5.17 µM [falling, full curve]
COc1ccc(C(=O)C2CCN(CC(=O)Nc3ccccc3F)CC2)cc1	1.28	–	29.1 µM [rising, single point]
Cn1c(=O)c2sccc2n(Cc2ccc(Br)cc2)c1=O	25.6	–	–
N#Cc1cccc(NC(=O)CNc2cc(S(=O)(=O)N3CCOCC3)ccc2N2CCCC2)c1	-30.2	23.1 µM [falling, single point]	–
N#Cc1cccn1-c1nccc(-c2cccs2)n1	7.52	–	–

One compound at a time, from the list above. Order of values: cell number change [%]	AC50 [1]	AC50 [2]
`COc1ccc(C)cc1S(=O)(=O)NCCc1ccccc1` is listed with –	–	5.8 µM [falling, full curve]
`O=S(=O)(Nc1ccc(-n2cccc2)cc1)c1ccc(Cl)cc1Cl` is listed with -66.6	13 µM [falling, partial curve]	18.4 µM [falling, partial curve]
